Source: PMC4719423
No constants are given. Whether binding was seen depends on the method and setting. In cells and extracts the contact can be indirect. Some binding calls cover weakened binding; strength is not graded here.

The chains behind the UniProt entries cited, without tags or fusion partners. Where a name states a change or a piece, a line headed by the entry shows the natural chain unless it says otherwise.
UniProt Q8CFE3: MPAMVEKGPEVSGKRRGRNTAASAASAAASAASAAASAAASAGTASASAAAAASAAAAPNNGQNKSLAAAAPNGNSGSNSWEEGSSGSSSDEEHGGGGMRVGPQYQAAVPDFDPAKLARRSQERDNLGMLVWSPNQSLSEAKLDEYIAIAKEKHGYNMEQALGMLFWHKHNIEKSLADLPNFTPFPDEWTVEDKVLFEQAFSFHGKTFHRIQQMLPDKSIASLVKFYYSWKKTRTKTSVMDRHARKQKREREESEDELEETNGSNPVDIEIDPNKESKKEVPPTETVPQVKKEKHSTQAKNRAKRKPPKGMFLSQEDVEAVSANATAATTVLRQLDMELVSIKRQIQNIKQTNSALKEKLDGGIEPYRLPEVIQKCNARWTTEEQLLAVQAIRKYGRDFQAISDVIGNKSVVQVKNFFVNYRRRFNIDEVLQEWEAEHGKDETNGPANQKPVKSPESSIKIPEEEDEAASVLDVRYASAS
UniProt Q8K4B0: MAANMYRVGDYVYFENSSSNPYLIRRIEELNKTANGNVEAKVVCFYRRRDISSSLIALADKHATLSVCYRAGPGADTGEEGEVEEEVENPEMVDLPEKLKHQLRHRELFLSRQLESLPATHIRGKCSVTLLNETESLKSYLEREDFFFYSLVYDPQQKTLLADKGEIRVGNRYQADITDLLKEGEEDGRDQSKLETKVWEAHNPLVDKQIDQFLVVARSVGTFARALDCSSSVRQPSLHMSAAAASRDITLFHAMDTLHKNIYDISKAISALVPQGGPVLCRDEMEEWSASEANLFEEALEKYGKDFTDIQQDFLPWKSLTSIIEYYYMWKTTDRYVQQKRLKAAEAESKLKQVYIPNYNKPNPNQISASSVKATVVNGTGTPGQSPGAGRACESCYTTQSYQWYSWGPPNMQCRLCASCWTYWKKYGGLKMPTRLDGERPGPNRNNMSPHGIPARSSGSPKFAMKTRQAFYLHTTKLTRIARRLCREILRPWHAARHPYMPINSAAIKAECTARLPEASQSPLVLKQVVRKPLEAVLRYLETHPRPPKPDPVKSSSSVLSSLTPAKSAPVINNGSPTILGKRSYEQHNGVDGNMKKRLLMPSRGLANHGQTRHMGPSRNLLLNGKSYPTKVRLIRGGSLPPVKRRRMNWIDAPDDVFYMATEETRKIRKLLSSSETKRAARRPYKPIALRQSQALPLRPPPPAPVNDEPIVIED
UniProt P70288: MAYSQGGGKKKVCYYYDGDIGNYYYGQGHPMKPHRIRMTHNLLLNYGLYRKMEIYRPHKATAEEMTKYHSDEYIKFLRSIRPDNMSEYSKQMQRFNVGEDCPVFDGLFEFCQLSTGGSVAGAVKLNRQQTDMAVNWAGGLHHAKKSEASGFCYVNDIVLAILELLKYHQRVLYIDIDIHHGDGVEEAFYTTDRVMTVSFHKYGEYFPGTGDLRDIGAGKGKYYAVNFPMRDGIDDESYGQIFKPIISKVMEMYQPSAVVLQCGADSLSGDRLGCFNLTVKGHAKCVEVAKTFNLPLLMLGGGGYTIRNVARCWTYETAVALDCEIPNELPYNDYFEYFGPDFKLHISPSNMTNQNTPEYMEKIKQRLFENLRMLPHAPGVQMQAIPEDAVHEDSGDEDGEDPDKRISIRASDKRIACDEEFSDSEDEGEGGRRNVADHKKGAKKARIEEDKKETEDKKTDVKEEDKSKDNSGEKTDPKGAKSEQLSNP
UniProt O09106: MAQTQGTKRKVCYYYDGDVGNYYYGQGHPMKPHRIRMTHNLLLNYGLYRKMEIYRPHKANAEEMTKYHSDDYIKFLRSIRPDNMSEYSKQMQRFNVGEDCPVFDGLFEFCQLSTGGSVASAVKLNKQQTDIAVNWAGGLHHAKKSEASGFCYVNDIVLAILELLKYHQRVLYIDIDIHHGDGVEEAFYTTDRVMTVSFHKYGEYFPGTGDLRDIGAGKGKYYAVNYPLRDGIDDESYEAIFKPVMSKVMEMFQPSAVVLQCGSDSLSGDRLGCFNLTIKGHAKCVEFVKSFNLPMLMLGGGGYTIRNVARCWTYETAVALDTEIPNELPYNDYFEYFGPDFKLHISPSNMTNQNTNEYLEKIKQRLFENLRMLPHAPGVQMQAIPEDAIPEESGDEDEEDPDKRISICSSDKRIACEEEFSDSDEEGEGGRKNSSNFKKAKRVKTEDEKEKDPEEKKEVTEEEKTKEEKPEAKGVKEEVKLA

Assays:
Assay in all cases: co-IP; P0 mouse brain protein extracts (Hdac2 KI/+, Hdac2 +/- and wild-type littermates) in Hunt buffer (20 mM Tris-HCl pH 8.0, 100 mM NaCl, 1 mM EDTA, 0.5% NP-40); 1 mg protein with 4 ug antibody 1 h at 4°C, protein A or G Dynabeads overnight at 4°C, three washes with Hunt buffer; immunoblot
[1] = biological target: CoREST (mouse (endogenous in brain)) (UniProt Q8CFE3)
[2] = biological target: MTA1 (NuRD) (mouse (endogenous in brain)) (UniProt Q8K4B0)
[3] = biological target: T1, Sin3A (mouse (endogenous in brain)) (UniProt Q60520)
T1 sequence: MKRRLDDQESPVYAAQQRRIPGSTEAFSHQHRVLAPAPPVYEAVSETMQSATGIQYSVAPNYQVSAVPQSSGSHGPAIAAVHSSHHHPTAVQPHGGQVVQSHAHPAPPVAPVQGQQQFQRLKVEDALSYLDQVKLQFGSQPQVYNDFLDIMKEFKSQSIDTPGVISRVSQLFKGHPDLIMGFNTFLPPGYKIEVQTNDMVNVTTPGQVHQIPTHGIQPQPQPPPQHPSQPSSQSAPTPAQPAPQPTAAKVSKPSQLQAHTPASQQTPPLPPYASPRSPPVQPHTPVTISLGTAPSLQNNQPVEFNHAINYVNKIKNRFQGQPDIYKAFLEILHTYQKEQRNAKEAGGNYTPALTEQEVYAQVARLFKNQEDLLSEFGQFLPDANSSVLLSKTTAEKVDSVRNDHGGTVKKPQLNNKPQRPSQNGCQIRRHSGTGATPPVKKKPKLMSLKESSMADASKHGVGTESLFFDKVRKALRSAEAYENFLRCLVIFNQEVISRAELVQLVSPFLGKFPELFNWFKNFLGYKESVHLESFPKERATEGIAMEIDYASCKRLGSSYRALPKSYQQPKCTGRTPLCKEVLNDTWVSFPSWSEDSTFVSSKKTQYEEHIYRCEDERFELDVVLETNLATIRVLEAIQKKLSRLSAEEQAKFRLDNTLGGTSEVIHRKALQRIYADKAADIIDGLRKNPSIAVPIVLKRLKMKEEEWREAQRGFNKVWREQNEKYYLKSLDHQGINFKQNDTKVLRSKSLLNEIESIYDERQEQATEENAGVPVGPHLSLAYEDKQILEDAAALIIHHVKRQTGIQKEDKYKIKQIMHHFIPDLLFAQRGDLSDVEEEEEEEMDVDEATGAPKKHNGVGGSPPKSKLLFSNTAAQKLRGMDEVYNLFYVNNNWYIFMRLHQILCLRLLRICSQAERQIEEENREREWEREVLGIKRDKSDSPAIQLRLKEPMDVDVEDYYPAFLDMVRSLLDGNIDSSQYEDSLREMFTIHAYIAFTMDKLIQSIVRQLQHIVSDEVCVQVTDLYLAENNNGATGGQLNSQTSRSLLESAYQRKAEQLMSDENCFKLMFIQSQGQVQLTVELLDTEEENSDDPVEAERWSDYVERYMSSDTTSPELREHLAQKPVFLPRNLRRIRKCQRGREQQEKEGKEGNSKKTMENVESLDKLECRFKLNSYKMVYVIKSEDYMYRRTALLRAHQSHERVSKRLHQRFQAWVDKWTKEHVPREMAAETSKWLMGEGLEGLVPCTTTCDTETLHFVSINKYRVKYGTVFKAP

[4] = biological target: histone deacetylase 2 (wild-type HDAC2) (mouse (endogenous in brain)) (UniProt P70288)

catalytically inactive HDAC2-H142A (from UniProt P70288 1-488) (enzyme)
binding [1]: binds
binding [2]: binds
binding [3]: binds

histone deacetylase 1 (HDAC1) (from UniProt O09106 1-482) (enzyme)
binding [4]: binds

histone deacetylase 2 (wild-type HDAC2) (from UniProt P70288 1-488) (enzyme)
binding [1]: binds
binding [2]: binds
binding [3]: binds
